Series [1] relates to Eosinophil peroxidase (EPX). In words: EMSA. Conditions: 3 nM aptamer, 5 nM EPX, purified native protein, label: 5'-FAM, single-stranded DNA, variant of EAP1-05.
Series [2] has as its system Myeloperoxidase (MPO). In words: FP. The following applies: PBS, slightly increased non-specific binding, purified native protein, protein details: Cedarlane #426-10-0.1, untagged commercial protein, label: 5'-FAM, single-stranded DNA.
Series [3] concerns Thyroid peroxidase (TPO). Nature of the series: pull-down. The following applies: HB, 1 uM protein; no TMB signal; purified recombinant protein; protein details: Cedarlane #ABIN934717; label: 5'-biotin; single-stranded DNA; variant of EAP1-05T3.

For some assays here: A weaker result is weaker than the reference pair of the same experiment. For some assays here: The exact form of at least one protein or probe is not confirmed. For some assays here: A negative result means that nothing was seen under these conditions.

As to “ATGCCATCCTACCAACCAGAAAGACAGTGCAAAGAAATAGAAAGAGAGCTAGAAGAAAGCTCTGAACTCG [EAP1-05T4]”, the binding result in series [1] (G to A replacements, significant reduction, protein details: Cedarlane #342-60-0.1, untagged commercial …) is recorded as “binds more weakly”. Regarding “CCATCCTACCAACCAGGGGGACAGTGCAAAGGGGTAGGGAG [EAP1-05T1]”, in series [1] (3' stem loop removed, bound fraction significantly reduced, protein details: Cedarlane #342-60-0.1, untagged commercial protein), the binding result is listed as “binds more weakly”. For “ATGCCATCCTACCAACCAGGGGGACAGTGCAAAGGGAGCTCTGAACTCG [EAP1-05T3]”, the binding result in series [2] (variant of EAP1-05) is “binds more weakly”.

Consider “TTTTTTTTTTATGCCATCCTACCAACCAGGGGGACAGTGCAAAGGGAGCTCTGAACTCG [EAP1-05T3BT]”, for which the binding result in series [3] is on record as “no binding”. With “ATGCCATCCTACCAACCAGGGGGACAGTGCAAAGGGGTAGGGAGGGGGCTAGGGGGGAGCTCTGAACTGG [EAP1-05]”, the binding result in series [2] is reported as “binds more weakly”.

These data come from patent US20230295635.
